# Measurements: patent US7435551B2, “Method for diagnosing type II diabetes or monitoring therapeutic effects of therapeutic agents for type II diabetes” (Fujirebio, Inc., priority 2001, dated 2008)
# Entries after “also recorded” stand apart in the source; their conditions may differ. Like-named read-outs stand apart in the source and are kept apart here. At least one structure is not confirmed: it was looked up by name or label, or the drawing left a doubt.
# Legend:
# [1] = insulin-resistant animals (Yoshioka et al. 2000); cited from earlier work
# [2] = clinical study (Ogihara et al. 1995); cited from earlier work
# [3] = literature reports (Schwartz 1998; Balfour and Plosker 1999); cited from earlier work
# [4] = Three-month pioglitazone administration to type II diabetes patients: serum insulin (EIA) and HOMA-IR; format: in vivo, human
# Source text: (§1) 10 male patients with type II diabetes (ages: 40 to 66, 57.7±7.4) either being only under diet therapy (n=7) or being under diet therapy and on medication of sulfonylurea (n=3) were subjected to inspection regarding the following parameters before and after a three-month administration of a thiazolidine derivative, pioglitazone. Body weights, blood glucose levels, and blood pressure levels of those patients and treatments for them were at constant levels for at least 3 months before the examination. The sulfonylurea doses for 3 patients were at constant levels during that period. Pioglitazone was administered to all 10 patients after breakfast every day (orally, 30 mg/day).
# The systolic blood pressure (SBP) and the diastolic blood pressure (DBP) were measured twice in a sitting position after an at least 5-minute recess. Body heights, weights, and levels of fasting plasma glucose (FPG), HbA1C, serum insulin, adiponectin, total cholesterol (TC), triglyceride (TG), HDL-cholesterol, LDL-cholesterol, and uric acid were measured in the morning after an overnight fast. Levels of plasma glucose, lipids, and uric acid were measured by a common automated measuring technique. […] The insulin resistance index was evaluated by the Homeostasis model assessment (HOMA-IR) (Matthews, D. R. et al., Diabetologia 28: 412-419, 1985; Rudenski, A. S. et al., Metabolism 40: 908-917, 1991).
# [5] = Assessment of body fat distribution by CT scan before and after three-month pioglitazone; format: in vivo, human; conditions: type II diabetes patients, three-month administration
# Procedure: The patients who had been also employed in Example 1 were subjected to the assessment of body fat distribution before and after the three-month administration of pioglitazone. Distributions of subcutaneous fat and visceral fat were determined by assessing the region of a Hounsfield unit of −150 to −50 by a method modified from the computerized tomography (CT) scan at the level of the navel by Tokunaga et al. (Tokunaga, K. et al., Int. J. Obes. 7: 437-445, 1983). CT images at the baseline and after a three-month treatment were taken in accordance with the same protocols that had been previously reported by the present inventors (Kawai, T. et al., Metabolism, 48: 1102-1107, 1999). The V/S ratio was calculated by dividing the visceral fat area (VFA) by the subcutaneous fat area (SFA).
# [6] = Three-month pioglitazone administration to type II diabetes patients: fasting glucose, HbA1c, lipids, uric acid; format: in vivo, human
# Source text: as §1
# (§2) The systolic blood pressure (SBP) and the diastolic blood pressure (DBP) were measured twice in a sitting position after an at least 5-minute recess. Body heights, weights, and levels of fasting plasma glucose (FPG), HbA1C, serum insulin, adiponectin, total cholesterol (TC), triglyceride (TG), HDL-cholesterol, LDL-cholesterol, and uric acid were measured in the morning after an overnight fast. Levels of plasma glucose, lipids, and uric acid were measured by a common automated measuring technique. The serum concentration of insulin was measured using a commercially available kit, EIA (Tosoh, Tokyo), as already described (Kawai, T. et al., Metabolism 48: 1102-1107, 1999; Hirose, H. et al., Clin. Sci. (Colch) 94: 633-636, 1998; Hirose, H. et al., J. Hypertens. 16: 2007-2012, 1998; Hirose, H. et al., Clin. Sci. (Colch) 100: 145-150, 2001). The insulin resistance index was evaluated by the Homeostasis model assessment (HOMA-IR) (Matthews, D. R. et al., Diabetologia 28: 412-419, 1985; Rudenski, A. S. et al., Metabolism 40: 908-917, 1991).
# [7] = Three-month pioglitazone administration to type II diabetes patients: body mass index and blood pressure; format: in vivo, human
# Source text: as §1, §2
Compound,Effect on blood pressure levels [1],Effect on blood pressure levels [2],Effect on LDL-cholesterol [3],"HOMA-IR, change in words [4]","Serum insulin, change in words [4]","Subcutaneous fat area (SFA), change in words [5]","V/S ratio, change in words ([5]; no statistical significance)","Visceral fat area (VFA), change in words ([5]; no statistical significance)","Fasting plasma glucose, change in words [6]","HDL-cholesterol, change in words [6]","HbA1C, change in words [6]","LDL-cholesterol level, change in words [6]","Triglyceride, change in words [6]","Uric acid, change in words [6]","Body mass index (BMI), change in words [7]","Diastolic blood pressure, change in words [7]","Systolic blood pressure, change in words [7]"
Cc1c(C)c2c(c(C)c1O)CCC(C)(COc1ccc(CC3SC(=O)NC3=O)cc1)O2 (stereo not drawn) [troglitazone],lower blood pressure levels,lower blood pressure levels,elevation of LTDL-cholesterol,,,,,,,,,,,,,,
CN(CCOc1ccc(CC2SC(=O)NC2=O)cc1)c1ccccn1 (stereo not drawn) [rosiglitazone],,,elevation of LTDL-cholesterol,,,,,,,,,,,,,,
CCc1ccc(CCOc2ccc(CC3SC(=O)NC3=O)cc2)nc1 (stereo not drawn) [pioglitazone],,,,significantly lowered,significantly lowered,significantly increased,tended to be smaller,"not reduced, but it rather slightly increased",significantly lowered,no significant change,significantly lowered,elevated; also recorded: slightly increased,no significant change,no significant change,elevated; also recorded: significantly increased,significantly lowered,significantly lowered
